Test results taken from paper PMC12807465.

Chains of the proteins cited; added tags and fusions are not shown. Residues count along the entry.
UniProt P11021, residues 19-654: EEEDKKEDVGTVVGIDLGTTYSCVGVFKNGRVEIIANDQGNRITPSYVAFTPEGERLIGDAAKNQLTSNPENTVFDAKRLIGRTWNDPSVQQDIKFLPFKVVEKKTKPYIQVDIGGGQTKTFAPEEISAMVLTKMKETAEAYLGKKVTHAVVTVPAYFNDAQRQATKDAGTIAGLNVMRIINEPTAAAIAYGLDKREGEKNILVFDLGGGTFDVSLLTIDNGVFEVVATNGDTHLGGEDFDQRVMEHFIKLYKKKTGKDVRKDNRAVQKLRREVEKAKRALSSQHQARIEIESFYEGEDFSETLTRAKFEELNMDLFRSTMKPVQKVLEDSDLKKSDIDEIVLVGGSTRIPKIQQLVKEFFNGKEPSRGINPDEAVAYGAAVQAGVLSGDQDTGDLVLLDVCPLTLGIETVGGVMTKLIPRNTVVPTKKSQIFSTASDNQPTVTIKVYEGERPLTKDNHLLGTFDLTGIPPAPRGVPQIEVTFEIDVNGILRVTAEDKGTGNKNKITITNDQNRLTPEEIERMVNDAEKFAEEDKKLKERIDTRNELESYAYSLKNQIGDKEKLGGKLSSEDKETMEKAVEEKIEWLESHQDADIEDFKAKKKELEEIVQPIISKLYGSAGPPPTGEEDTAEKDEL
UniProt P07237, residues 18-508: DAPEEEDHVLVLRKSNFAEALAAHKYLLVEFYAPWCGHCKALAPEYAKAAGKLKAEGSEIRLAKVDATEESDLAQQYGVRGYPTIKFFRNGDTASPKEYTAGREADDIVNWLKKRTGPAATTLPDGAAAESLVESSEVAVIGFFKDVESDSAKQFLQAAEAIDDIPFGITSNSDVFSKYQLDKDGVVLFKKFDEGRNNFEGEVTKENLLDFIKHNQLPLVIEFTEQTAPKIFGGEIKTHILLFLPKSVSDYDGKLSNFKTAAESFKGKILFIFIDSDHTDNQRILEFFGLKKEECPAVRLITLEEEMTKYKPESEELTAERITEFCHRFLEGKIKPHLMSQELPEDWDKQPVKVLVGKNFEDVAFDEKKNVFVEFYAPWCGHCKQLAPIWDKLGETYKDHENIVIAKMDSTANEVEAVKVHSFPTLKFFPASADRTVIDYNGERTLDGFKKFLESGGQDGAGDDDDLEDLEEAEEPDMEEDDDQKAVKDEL
UniProt P30101, residues 25-505: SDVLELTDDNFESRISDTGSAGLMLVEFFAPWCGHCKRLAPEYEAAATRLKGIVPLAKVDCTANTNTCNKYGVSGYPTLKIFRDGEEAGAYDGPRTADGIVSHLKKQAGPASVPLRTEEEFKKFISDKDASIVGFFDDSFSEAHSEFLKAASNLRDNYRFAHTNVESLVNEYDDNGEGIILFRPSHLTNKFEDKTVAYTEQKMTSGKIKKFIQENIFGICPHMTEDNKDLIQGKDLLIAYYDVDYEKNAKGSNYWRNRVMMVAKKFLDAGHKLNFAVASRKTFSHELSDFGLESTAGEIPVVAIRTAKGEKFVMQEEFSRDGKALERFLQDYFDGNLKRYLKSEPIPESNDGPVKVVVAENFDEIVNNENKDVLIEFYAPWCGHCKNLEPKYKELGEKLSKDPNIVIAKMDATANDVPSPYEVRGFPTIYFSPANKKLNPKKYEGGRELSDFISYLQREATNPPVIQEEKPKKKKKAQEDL

B1: ERP44 (protein, UniProt Q9BS26 30-406)
chain: EITSLDTENIDEILNNADVALVNFYADWCRFSQMLHPIFEEASDVIKEEFPNENQVVFARVDCDQHSDIAQRYRISKYPTLKLFRNGMMMKREYRGQRSVKALADYIRQQKSDPIQEIRDLAEITTLDRSKRNIIGYFEQKDSDNYRVFERVANILHDDCAFLSAFGDVSKPERYSGDNIIYKPPGHSAPDMVYLGAMTNFDVTYNWIQDKCVPLVREITFENGEELTEEGLPFLILFHMKEDTESLEIFQNEVARQLISEKGTINFLHADCDKFRHPLLHIQKTPADCPVIAIDSFRHMYVFGDFKDVLIPGKLKQFVFDLHSGKLHREFHHGPDPTDTAPGEQAQDVASSPPESSFQKLAPSEYRYTLLRDRDEL
B2: GANAB (protein, UniProt Q14697 29-944)
chain: ITLAVDRSNFKTCEESSFCKRQRSIRPGLSPYRALLDSLQLGPDSLTVHLIHEVTKVLLVLELQGLQKNMTRFRIDELEPRRPRYRVPDVLVADPPIARLSVSGRDENSVELTMAEGPYKIILTARPFRLDLLEDRSLLLSVNARGLLEFEHQRAPRVSQGSKDPAEGDGAQPEETPRDGDKPEETQGKAEKDEPGAWEETFKTHSDSKPYGPMSVGLDFSLPGMEHVYGIPEHADNLRLKVTEGGEPYRLYNLDVFQYELYNPMALYGSVPVLLAHNPHRDLGIFWLNAAETWVDISSNTAGKTLFGKMMDYLQGSGETPQTDVRWMSETGIIDVFLLLGPSISDVFRQYASLTGTQALPPLFSLGYHQSRWNYRDEADVLEVDQGFDDHNLPCDVIWLDIEHADGKRYFTWDPSRFPQPRTMLERLASKRRKLVAIVDPHIKVDSGYRVHEELRNLGLYVKTRDGSDYEGWCWPGSAGYPDFTNPTMRAWWANMFSYDNYEGSAPNLFVWNDMNEPSVFNGPEVTMLKDAQHYGGWEHRDVHNIYGLYVHMATADGLRQRSGGMERPFVLARAFFAGSQRFGAVWTGDNTAEWDHLKISIPMCLSLGLVGLSFCGADVGGFFKNPEPELLVRWYQMGAYQPFFRAHAHLDTGRREPWLLPSQHNDIIRDALGQRYSLLPFWYTLLYQAHREGIPVMRPLWVQYPQDVTTFNIDDQYLLGDALLVHPVSDSGAHGVQVYLPGQGEVWYDIQSYQKHHGPQTLYLPVTLSSIPVFQRGGTIVPRWMRVRRSSECMKDDPITLFVALSPQGTAQGELFLDDGHTFNYQTRQEFLLRRFSFSGNTLVSSSADPEGHFETPIWIERVVIIGAGKPAAVVLQTKGSPESRLSFQHDPETSVLVLRKPGINVASDWSIHLR
B3: PTPN1, endogenous (enzyme, UniProt P18031 1-435)
chain: MEMEKEFEQIDKSGSWAAIYQDIRHEASDFPCRVAKLPKNKNRNRYRDVSPFDHSRIKLHQEDNDYINASLIKMEEAQRSYILTQGPLPNTCGHFWEMVWEQKSRGVVMLNRVMEKGSLKCAQYWPQKEEKEMIFEDTNLKLTLISEDIKSYYTVRQLELENLTTQETREILHFHYTTWPDFGVPESPASFLNFLFKVRESGSLSPEHGPVVVHCSAGIGRSGTFCLADTCLLLMDKRKDPSSVDIKKVLLEMRKFRMGLIQTADQLRFSYLAVIEGAKFIMGDSSVQDQWKELSHEDLEPPPEHIPPPPRPPKRILEPHNGKCREFFPNHQWVKEETQEDKDCPIKEEKGSPLNAAPYGIESMSQDTEVRSRVVGGSLRGAQAASPAKGEPSLPEKDEDHALSYWKPFLVNMCVATVLTAGAYLCYRFLFNSNT

Each molecule was assayed against T1, Flag-tagged UGT2B17 (UDP glucuronosyltransferase family 2 member B17), full length, expressed in prostate cancer cells (UniProt O75795) (assay: affinity purification with mass spectrometry; LNCaP cells transfected with Flag-tagged control, UGT2B17, C1 or C2; cytoplasmic or nuclear fractions; IP with a Flag antibody, on-bead trypsin digestion, LC-MS; n = 4 repeats).
T1 sequence: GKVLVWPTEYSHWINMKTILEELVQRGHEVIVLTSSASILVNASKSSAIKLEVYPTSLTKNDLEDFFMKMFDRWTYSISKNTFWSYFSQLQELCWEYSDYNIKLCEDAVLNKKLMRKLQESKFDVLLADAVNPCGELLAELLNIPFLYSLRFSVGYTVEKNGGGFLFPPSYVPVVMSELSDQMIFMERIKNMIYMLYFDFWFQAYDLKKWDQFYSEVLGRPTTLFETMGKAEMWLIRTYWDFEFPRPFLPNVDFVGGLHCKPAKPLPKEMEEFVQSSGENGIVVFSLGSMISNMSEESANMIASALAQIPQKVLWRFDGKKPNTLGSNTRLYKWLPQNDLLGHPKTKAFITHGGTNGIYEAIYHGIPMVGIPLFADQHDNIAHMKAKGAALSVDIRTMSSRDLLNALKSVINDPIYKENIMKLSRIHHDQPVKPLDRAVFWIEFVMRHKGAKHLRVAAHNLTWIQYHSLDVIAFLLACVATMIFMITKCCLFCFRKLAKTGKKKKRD

binding, binds:
BiP (from UniProt P11021 19-654)
PDIA1 (also known as P4HB), endogenous (from UniProt P07237 18-508)
PDIA3 (also known as ERP57), endogenous (from UniProt P30101 25-505)
B1
B2
B3

No constants are given. Whether binding was seen depends on the method and setting. In cells and extracts the contact can be indirect. Here binding means that the protein was enriched with, or labelled near, the bait; the list need not be complete. Where a sequence is shown, tags or fusion partners need not be part of it.
